Biological target: T1, human OAT2 (organic anion transporter 2) (Homo sapiens, UniProt Q9Y694)
T1 construct: gene SLC22A7; full-length human OAT2 stably transfected in HEK293 cells (PortaCellTec Biosciences)
T1 sequence (Q9Y694 1-548): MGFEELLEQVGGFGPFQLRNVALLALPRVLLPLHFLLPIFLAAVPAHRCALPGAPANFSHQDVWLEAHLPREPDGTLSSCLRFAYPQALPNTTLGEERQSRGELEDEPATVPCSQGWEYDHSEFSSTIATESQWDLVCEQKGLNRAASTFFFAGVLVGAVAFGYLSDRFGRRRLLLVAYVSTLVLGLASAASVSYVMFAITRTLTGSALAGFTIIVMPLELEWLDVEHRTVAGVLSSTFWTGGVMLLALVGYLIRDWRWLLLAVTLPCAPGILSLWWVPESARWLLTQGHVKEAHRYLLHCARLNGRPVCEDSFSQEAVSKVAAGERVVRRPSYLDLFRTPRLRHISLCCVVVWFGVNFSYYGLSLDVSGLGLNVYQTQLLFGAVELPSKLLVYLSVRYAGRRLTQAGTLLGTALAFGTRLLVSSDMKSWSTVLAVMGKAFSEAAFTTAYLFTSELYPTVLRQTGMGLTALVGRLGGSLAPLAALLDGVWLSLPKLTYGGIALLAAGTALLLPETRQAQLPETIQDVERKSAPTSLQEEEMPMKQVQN
Assay: inhibition of [3H]cGMP uptake in OAT2-HEK293 cells
Format: cell-based
Settings: 10 μM cGMP (0.1 μM [3H]cGMP + 9.9 μM unlabeled), 5 min, 37°C, pH 7.4

- IC50: 10.9 ± 0.6 µM
Compound: NS(=O)(=O)c1cc(C(=O)O)c(NCc2ccco2)cc1Cl [furosemide]
